Record: PubChem BioAssay AID1259405 (NCATS, 2018)
Shown is one part, drawn at random, of about 50,000 deposited reagents. About 4,000 of them (8%) count as active. 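Mouse siRNA library applied to hamster cells; one well for each siRNA.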 Reagents against one gene are numbered here.

Aim: 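Mouse-designed siRNAs used to find CHO productivity engineering targets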 (primary screen)
Cells: Chinese hamster CHO-K1 ovary cells with stable secreted eGFP expression
Knock-down reagent: single siRNA against mouse genes, 0.8 pmol siRNA per well (2 µl of 400 nM stock)
Timing: 3 days
Measurement: 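Per-well intracellular GFP measured by laser scanning cytometry, plus viability from ATP luminescence, each relative to plate median of non-targeting control wells, in %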
Reading the numbers: GFP, % of control: higher = more GFP per well, higher productivity; viability (ATP), % of control: higher = more viable cells (more ATP)
Active means: 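a knock-down is called active if GFP reaches 120% or more of non-targeting control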

| gene symbol | siRNA no. | GFP, % of control | viability (ATP), % of control | activity call |
| --- | --- | --- | --- | --- |
| Mmp23 (matrix metallopeptidase 23) | 1 | 83.8 | 96 | inactive |
| Mmp23 (matrix metallopeptidase 23) | 2 | 69 | 54.2 | inactive |
| Chrng (cholinergic receptor, nicotinic, gamma polypeptide) | 1 | 79.3 | 114 | inactive |
| Chrng (cholinergic receptor, nicotinic, gamma polypeptide) | 2 | 38.6 | 48.3 | inactive |
| Chrng (cholinergic receptor, nicotinic, gamma polypeptide) | 3 | 88.5 | 81.1 | inactive |
| Tigd4 (tigger transposable element derived 4) | 1 | 29 | 69.2 | inactive |
| Tigd4 (tigger transposable element derived 4) | 2 | 120 | 85.8 | inactive |
| Tigd4 (tigger transposable element derived 4) | 3 | 104 | 94.2 | inactive |
| Bag1 (BCL2-associated athanogene 1) | 1 | 33 | 26.3 | inactive |
| Bag1 (BCL2-associated athanogene 1) | 2 | 129 | 87.5 | active |
| Bag1 (BCL2-associated athanogene 1) | 3 | 56.5 | 64.4 | inactive |
| Ralgapb (Ral GTPase activating protein, beta subunit (non-catalytic)) | 1 | 39.9 | 30.8 | inactive |
| Ralgapb (Ral GTPase activating protein, beta subunit (non-catalytic)) | 2 | 77.6 | 101 | inactive |
| Ralgapb (Ral GTPase activating protein, beta subunit (non-catalytic)) | 3 | 127 | 81.8 | active |
| Prpf38a | 1 | 58.9 | 70.4 | inactive |
| Prpf38a | 2 | 65.6 | 69.2 | inactive |
| Prpf38a | 3 | 87.4 | 128 | inactive |
| Or5p5 (olfactory receptor family 5 subfamily P member 5) | 1 | 132 | 68.1 | active |
| Or5p5 (olfactory receptor family 5 subfamily P member 5) | 2 | 58.7 | 40.8 | inactive |
| Or5p5 (olfactory receptor family 5 subfamily P member 5) | 3 | 63.7 | 45.2 | inactive |
| Gm4894 (predicted gene 4894) | 1 | 57.6 | 43.4 | inactive |
| Gm4894 (predicted gene 4894) | 2 | 81.3 | 100 | inactive |
| Gm4894 (predicted gene 4894) | 3 | 58.2 | 77.9 | inactive |
| Eif4a2 (eukaryotic translation initiation factor 4A2) | 1 | 36.3 | 40.9 | inactive |
| Eif4a2 (eukaryotic translation initiation factor 4A2) | 2 | 27 | 35.6 | inactive |
| Eif4a2 (eukaryotic translation initiation factor 4A2) | 3 | 106 | 105 | inactive |
| Pdcd5 (programmed cell death 5) | 1 | 57.3 | 53 | inactive |
| Pdcd5 (programmed cell death 5) | 2 | 38.4 | 45.4 | inactive |
| Pdcd5 (programmed cell death 5) | 3 | 41.4 | 65.5 | inactive |
| Fam107b (family with sequence similarity 107, member B) | 1 | 75.7 | 54.7 | inactive |
| Fam107b (family with sequence similarity 107, member B) | 2 | 98.5 | 78.9 | inactive |
| Fam107b (family with sequence similarity 107, member B) | 3 | 107 | 61 | inactive |
| Dnaaf10 (dynein axonemal assembly factor 10) | 1 | 43.3 | 37.5 | inactive |
| Dnaaf10 (dynein axonemal assembly factor 10) | 2 | 61.8 | 73.4 | inactive |
| Dnaaf10 (dynein axonemal assembly factor 10) | 3 | 56.5 | 39.4 | inactive |
| Ttk (Ttk protein kinase) | 1 | 58.8 | 67.4 | inactive |
| Ttk (Ttk protein kinase) | 2 | 72.1 | 75.2 | inactive |
| Ttk (Ttk protein kinase) | 3 | 63.4 | 70.8 | inactive |
| Hpcal1 (hippocalcin-like 1) | 1 | 66.9 | 64.6 | inactive |
| Hpcal1 (hippocalcin-like 1) | 2 | 57.2 | 68.3 | inactive |
| Hpcal1 (hippocalcin-like 1) | 3 | 79.6 | 79.2 | inactive |
| B530045E10Rik (RIKEN cDNA B530045E10 gene) | 1 | 94.8 | 72.9 | inactive |
| B530045E10Rik (RIKEN cDNA B530045E10 gene) | 2 | 87.5 | 92.5 | inactive |
| B530045E10Rik (RIKEN cDNA B530045E10 gene) | 3 | 167 | 62 | active |
| Mtmr3 (myotubularin related protein 3) | 1 | 71.8 | 80.1 | inactive |
| Mtmr3 (myotubularin related protein 3) | 2 | 68.7 | 87.3 | inactive |
| Mtmr3 (myotubularin related protein 3) | 3 | 68.3 | 87.6 | inactive |
| Tor1aip1 (torsin A interacting protein 1) | 1 | 83.6 | 92.7 | inactive |
| Tor1aip1 (torsin A interacting protein 1) | 2 | 81.7 | 102 | inactive |
| Tor1aip1 (torsin A interacting protein 1) | 3 | 73 | 67 | inactive |
| Hao2 (hydroxyacid oxidase 2) | 1 | 87.8 | 107 | inactive |
| Hao2 (hydroxyacid oxidase 2) | 2 | 34.8 | 93.6 | inactive |
| Hao2 (hydroxyacid oxidase 2) | 3 | 61.4 | 72.7 | inactive |
| Dusp16 (dual specificity phosphatase 16) | 1 | 70.6 | 74 | inactive |
| Dusp16 (dual specificity phosphatase 16) | 2 | 82.2 | 71.8 | inactive |
| Gal3st2 (galactose-3-O-sulfotransferase 2) | 1 | 74.8 | 82.2 | inactive |
| Gal3st2 (galactose-3-O-sulfotransferase 2) | 2 | 100 | 97.6 | inactive |
| Gal3st2 (galactose-3-O-sulfotransferase 2) | 3 | 110 | 80.3 | inactive |

No new results follow: entries from further up.
| gene symbol | siRNA no. | GFP, % of control | viability (ATP), % of control | activity call |
| --- | --- | --- | --- | --- |
| Pdcd5 (programmed cell death 5) | 1 | 57.3 | 53 | inactive |
| Pdcd5 (programmed cell death 5) | 2 | 38.4 | 45.4 | inactive |
| Pdcd5 (programmed cell death 5) | 3 | 41.4 | 65.5 | inactive |
| Fam107b (family with sequence similarity 107, member B) | 1 | 75.7 | 54.7 | inactive |
| Fam107b (family with sequence similarity 107, member B) | 2 | 98.5 | 78.9 | inactive |
| Fam107b (family with sequence similarity 107, member B) | 3 | 107 | 61 | inactive |
| Dnaaf10 (dynein axonemal assembly factor 10) | 1 | 43.3 | 37.5 | inactive |
